According to PMC7782846:

Target: T1, STING (bait of the mass spectrometry of STING-binding proteins) (UniProt Q3TBT3)
T1 sequence: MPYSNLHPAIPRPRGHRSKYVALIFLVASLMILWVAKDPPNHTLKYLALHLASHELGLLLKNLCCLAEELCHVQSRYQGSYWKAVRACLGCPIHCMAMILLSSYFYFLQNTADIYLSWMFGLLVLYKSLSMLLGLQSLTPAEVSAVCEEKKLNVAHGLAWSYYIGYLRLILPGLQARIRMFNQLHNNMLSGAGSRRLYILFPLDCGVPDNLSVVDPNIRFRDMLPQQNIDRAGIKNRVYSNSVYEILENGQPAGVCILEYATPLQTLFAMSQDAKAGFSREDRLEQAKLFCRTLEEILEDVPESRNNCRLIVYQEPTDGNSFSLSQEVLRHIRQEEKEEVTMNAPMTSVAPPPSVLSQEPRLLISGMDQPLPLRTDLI
Test: affinity purification with mass spectrometry; lysate (1% Triton X-100, 150 mM NaCl, pH 7.2) on anti-FLAG M2 Affinity Gel overnight at 4 °C, FLAG peptide elution, tryptic digest, LC-MS/MS

B1: Ablim1 (protein, UniProt Q8K4G5 1-861)
chain: MPSLLGLKCLGKLCSSEIGKVPSPERASLRNSHRRLLIEDLSVPETPDPAHRRRGTVIHLVYLYSAGCGPPELRFSSYDPSVAHPQDPHHSSEKPVIHCHKCGEPCKGEVLRVQTKHFHIKCFTCKVCGCDLAQGGFFIKNGDYLCTLDYQRMYGTRCHGCGEFVEGEVVTALGKTYHPNCFACTICKRPFPPGDRVTFNGRDCLCQLCAQPMSSSPKEASCSSNCAGCGRDIKNGQALLALDKQWHLGCFKCKSCGKVLTGEYISKDGSPYCEKDYQGLFGVKCEACHQFITGKVLEAGDKHYHPSCARCSRCNQMFTEGEEMYLQGSTVWHPDCKQSTKTEEKLRPPNIPRSSSDFFYPKSLIRRTGRSPALQLLSPPCLTNSNKNPRQPTRTSSESIYSRPGSSIPGSPGHTIYAKVDNEILDYKDLAAIPKVKAIYDIERPDLITYEPFYTSGYEDKQERQSLGESPRTLSPTPSAEGYQDVRDRMIHRSTSQGSINSPVYSRHSYTPTTSRSPQHFHRPELLSPGVHRWSPLRTSSFSSTHSDSRPNPPFRHHFLPHVKGNEPSSGRNSPLPYRPDSRPLTPTYAQAPKHFHVPDQGINIYRKPPIYKQHAALAAQSKASEDIIKFSKFPAAQAPDPNEIPKIETDHWPGPPSLAAVGTDPRRRSSGREEDEEELLRRRQLQEEQLMKLNSGLGQLILKEEMEKESRERASLASRYDSPLHSASHAPSSKTSSLPGYGKNGLHRPVSTDFAQYNSYGDISGGVRDYQTLPDGHMPAVRMDRGVSMPNMLEPKIFPYEMLMVTNRGRNKILRDVDRTRLERHLAPEVFWEIFGMSIQEFDKLPLWRRNDMKKKAKLF
How did the binding turn out when B1 was run?
Its binding is “binds”.

B2: Clptm1l (protein, UniProt Q8BXA5 1-539)
chain: MWSGRSSFTSLVVGVFLVYVVHTCWVMYGIVYTRPCSGDSNCIQPYLALRPKLQLSVYTTTRSSLGAENNVDLILNVEDFDVDSKFERTVNVSVPKKTRNNGTLYAYIFLHHAGILPWQDGKQVHVVSTLTTYMIPKPEEINLLTGESATQQQIEAEKKPSNALDEPVSHWRPRLTLNVMVDDFVFDGSSLPADVHRYMKMIQLGKTVHYLPILFIDQLSNRVKDLMVINRSTTELPLTVSYDKISLGRLRFWIHMQDAVYSLQQFGFSEKDADELKGIFVDTNLYLLALTFFVAAFHLLFDFLAFKSDISFWKKKKSMIGMSTKAVLWRCFSTVVIFLFLLDEQTSLLVLIPAGVGAAIELWKVKKALKITVAWRGLRPVFQFGTHSESERKTEKYDAQAMKYLSYLLYPLCVGGAVYSLLNIKYKSWYSWLINSFVNGVYAFGFLFMLPQLFVNYKMKSVAHLPWKAFTYKAFNTFIDDVFAFIITMPTSHRLACFRDDVVFLVYLYQRWLYPVDKSRVNEFGESYEEQPKRKPHPD
How did the binding turn out when B2 was run?
The binding was “binds”.

B3: H13 (protein, UniProt Q9D8V0 1-378)
chain: MDSAVSDPHNGSAEAGTPANGTTRPPSTPEGIALAYGSLLLMALLPIFFGALRSVRCARGKSSSDMPETITSRDAARFPIIASCTLLGLYLFFKIFSQEYINLLLSMYFFVLGILALSHTISPFMNKFFPANFPNRQYQLLFTQGSGENKEEIINYEFDTKDLVCLGLSSVVGVWYLLRKHWIANNLFGLAFSLNGVELLHLNNVSTGCILLGGLFIYDIFWVFGTNVMVTVAKSFEAPIKLVFPQDLLEKGLEADNFAMLGLGDIVIPGIFIALLLRFDISLKKNTHTYFYTSFAAYIFGLGLTIFIMHIFKHAQPALLYLVPACIGFPVLVALAKGEVAEMFSYEESNPKDPAAETESKEESTEASASKRLEKKEK
How did the binding turn out when B3 was run?
Its binding is “binds”.

B4: Hsd17b12 (protein, UniProt O70503 1-312)
chain: MECAPPAAGFLYWVGASTIAYLALRASYSLFRAFQVWCVGNEALVGPRLGEWAVVTGGTDGIGKAYAEELAKRGMKIVLISRSQDKLNQVSNNIKEKFNVETRTIAVDFSLDDIYDKIKTGLSGLEIGVLVNNVGMSYEYPEYFLEIPDLDNTIKKLININVLSVCKVTRLVLPGMVERSKGVILNISSASGMLPVPLLTIYSATKAFVDFFSQCLHEEYKSKGIFVQSVMPYLVATKLAKIQKPTLDKPSAETFVKSAIKTVGLQTRTTGYVIHSLMGSINSIMPRWMYFKIIMGFSKSLRNRYLKKRKKN
With B4 as the binder, how does the binding read?
The binding was “binds”.

B5: Lpcat1 (protein, UniProt Q3TFD2 1-534)
chain: MRLRGRGPRAAPSSSSGAGDARRLAPPGRNPFVHELRLSALQKAQVAFMTLTLFPIRLLFAAFMMLLAWPFALLASLGPPDKEPEQPLALWRKVVDFLLKAIMRTMWFAGGFHRVAVKGRQALPTEAAILTLAPHSSYFDAIPVTMTMSSIVMKAESRDIPIWGTLIRYIRPVFVSRSDQDSRRKTVEEIKRRAQSNGKWPQIMIFPEGTCTNRTCLITFKPGAFIPGVPVQPVVLRYPNKLDTITWTWQGPGALKILWLTLCQFQNQVEIEFLPVYCPSEEEKRNPALYASNVRRVMAKALGVSVTDYTFEDCQLALAEGQLRLPADTCLLEFARLVRGLGLKPENLEKDLDKYSESARMKRGEKIRLPEFAAYLEVPVSDALEDMFSLFDESGGGEIDLREYVVALSVVCRPSQTLATIQLAFKMYGSPEDGSIDEANLSCILKTALGVSELTVTDLFQAIDQEDKGRITFDDFCGFAEMYPDYAEDYLYPDQTHFDSCAQTPPAPTPNGFCIDFSPENSDFGRKNSCKKAD
How did the binding turn out when B5 was run?
Its binding is “binds”.

B6: Mars (protein, UniProt Q68FL6 1-902)
chain: MRLFVSEGSPGSLPVLAAAARARGRAELLISTVGPEECVVPFLTRPKVPVLQLDSGNYLFSASAICRYFFLLCGWEQDDLTNQWLEWEATELQPVLSAALHCLVVQGKKGEDILGPLRRVLTHIDHSLSRQNCPFLAGDTESLADIVLWGALYPLLQDPAYLPEELGALQSWFQTLSTQEPCQRAAETVLKQQGVLALRLYLQKQPQPQPPPPEGRTVSNELEEEELATLSEEDIVTAVAAWEKGLESLPPLKLQQHPVLPVPGERNVLITSALPYVNNVPHLGNIIGCVLSADVFARYCRLRQWNTLYLCGTDEYGTATETKAMEEGLTPREICDKYHAIHADIYRWFGISFDTFGRTTTPQQTKITQDIFQRLLTRGFVLRDTVEQLRCERCARFLADRFVEGVCPFCGYEEARGDQCDRCGKLINAIELKKPQCKICRSCPVVRSSQHLFLDLPKLEKRLEDWLGKTVPGSDWTPNARFIIRSWLRDGLKPRCITRDLKWGTPVPLEGFEDKVFYVWFDATIGYVSITANYTDQWEKWWKNPEQVDLYQFMAKDNVPFHGLVFPCSVLGAEDNYTLVKHIIATEYLNYEDGKFSKSRGIGVFGDMAKDTGIPADIWRFYLLYIRPEGQDSAFSWTDLLIKNNSELLNNLGNFINRAGMFVSKFFGGCVPEMALTPDDRRLVAHVSWELQHYHQLLEKVRIRDALRSILTISRHGNQYIQVNEPWKRIKGGEMDRQRAGTVTGMAVNMAALLSVMLQPYMPTVSSTIQTQLQLPPAACRILATSFICTLPAGHRIGTVSPLFQKLENDQIENLRQRFGGGQAKGSPKPAAVEAVTAAGSQHIQTLTDEVTKQGNVVRELKAQKADKNQVAAEVAKLLDLKKQLALAEGKPIETPKGKKKK
B6 was tested. Which binding did it give?
Its binding is “binds”.

B7: Myl12a (protein, UniProt Q6ZWQ9 1-172)
chain: MSSKRAKTKTTKKRPQRATSNVFAMFDQSQIQEFKEAFNMIDQNRDGFIDKEDLHDMLASMGKNPTDEYLDAMMNEAPGPINFTMFLTMFGEKLNGTDPEDVIRNAFACFDEEAIGTIQEDYLRELLTTMGDRFTDEEVDELYREAPIDKKGNFNYIEFTRILKHGAKDKDD
How did the binding turn out when B7 was run?
Its binding is “binds”.

B8: Ncln (protein, UniProt Q8VCM8 43-563)
chain: AHEFTVYRMQQYDLQGQPYGTRNAVLNTEARTVDADVLSRRCVLMRLLDFSYEHYQKALRQSAGAVVIILPRAMAAVPQDVVRQFMEIEPEMLAMETVVPVYFAVEDEALLSIYEQTQAASASQGSASAAEVLLHTATANGFQMVTSGAQSQAVSDWLITSVEGRLTGLGGEDLPTIVIVAHYDAFGVAPWLSLGADSNGSGISVLLELARLFSRLYTYKRTHAAYNLLFFASGGGKFNYQGTKRWLEDSLDHTDSSLLQDNVAFVLCLDTVGRGSHLRLHVSKPPREGTLQHAFLRELETVAAHQFPDVSFSMVHKKINLADDVLAWEHERFAIRRLPAFTLSHLESHRAGPRSSIMDVRSRVDSKTLTRNTRIIAEALTRVIYNLTEKGTPPDMPVFTEQMQVQEEQIDSVMDWLTNQPRAAQLLDKDGTFLSTLEHFLSRYLKDVRQHHVKADKRDPEFVFYDQLKQVMNAYRVKPAIFDLLLALCIGAYLGMAYTAVQHFHVLYKTVQRLLLKAKAQ
For B8, which binding is on record?
Its binding is “binds”.

B9: Hacd3 (protein, UniProt Q8K2C9 1-362)
chain: METQVLTPHVYWAQRHRELYLRVELSDVQNPAISITDNVLHFKAQGHGAKGDNVYEFHLEFLDLVKPEPAYRLTQRQVNITVQKKGSHWWERLTKQEKRPLFLAPDFDRWLDESDAEMELRAKEEERLNKLRLEREGSPETLTNLKKGYLFMYNLVQLLGFSWIFVNLTVRFFILGKESFYDTFHNVADMMYFCQMLALVETLNAAIGVTSTPVLPALIQFLGRNFILFLVFGTMEEMQNKAVVFFVFYSWSAIEIFRYPFYMLSCIDMDWKVLTWLRYTMWIPLYPLGCLSEAVAVIQSIPVFNESGRFSFTLPYPVKMKVRFSFFLQVYLVMLFLGLYINFRHLYKQRRRRYGQKKKKLH
How did the binding turn out when B9 was run?
Its binding is “binds”.

B10: Slc25a4 (protein, UniProt P48962 1-298)
chain: MGDQALSFLKDFLAGGIAAAVSKTAVAPIERVKLLLQVQHASKQISAEKQYKGIIDCVVRIPKEQGFLSFWRGNLANVIRYFPTQALNFAFKDKYKQIFLGGVDRHKQFWRYFAGNLASGGAAGATSLCFVYPLDFARTRLAADVGKGSSQREFNGLGDCLTKIFKSDGLKGLYQGFSVSVQGIIIYRAAYFGVYDTAKGMLPDPKNVHIIVSWMIAQSVTAVAGLVSYPFDTVRRRMMMQSGRKGADIMYTGTLDCWRKIAKDEGANAFFKGAWSNVLRGMGGAFVLVLYDEIKKYV
How did the binding turn out when B10 was run?
The binding was “binds”.

B11: Slc25a5 (protein, UniProt P51881 1-298)
chain: MTDAAVSFAKDFLAGGVAAAISKTAVAPIERVKLLLQVQHASKQITADKQYKGIIDCVVRIPKEQGVLSFWRGNLANVIRYFPTQALNFAFKDKYKQIFLGGVDKRTQFWRYFAGNLASGGAAGATSLCFVYPLDFARTRLAADVGKAGAEREFKGLGDCLVKIYKSDGIKGLYQGFNVSVQGIIIYRAAYFGIYDTAKGMLPDPKNTHIFISWMIAQSVTAVAGLTSYPFDTVRRRMMMQSGRKGTDIMYTGTLDCWRKIARDEGSKAFFKGAWSNVLRGMGGAFVLVLYDEIKKYT
Which binding does the source give for B11 here?
The binding was “binds”.

These are yes or no findings as the source states them, for the method shown. In cells and extracts the contact can be indirect. Here binding means that the protein was enriched with, or labelled near, the bait; the list need not be complete.
